From patent US6194169A, “Enhanced expression of human platelet-derived growth factor in Pichia pastoris” (The University of Kentucky Research Foundation, priority 1998, dated 2001) come the findings set out here.

Some results come without the dose or concentration used.

The data set relates to CHO cells. Description: [35S]cysteine pulse-chase of cell surface association and secretion in CHO cells. Type of data set: cell-based, Chinese hamster.

As for “WT-RKK: human PDGF B-chain (PDGF-BB homodimer) with wild-type loop III residues Arg Lys Lys (RKK)”, the “time of appearance of suramin-releasable p34/35 on the cell surface” value was at most 1 h, the “time of disappearance of suramin-releasable p34/35 from the cell surface” value is at most 24 h and the “time of peak of suramin-releasable p34/35 on the cell surface” value is at most 3 h.
